From PubChem BioAssay AID2685 (National Center for Advancing Translational Sciences (NCATS), 2010)
Some of the results follow. Further columns of the screen follow, without active or inactive calls. Most of these compounds were active or inconclusive in the main read-out, so they are no random draw. The note in brackets gives the kind of curve behind each potency; many fits are weak.

Test: qHTS Assay for Lipid Storage Modulators in Drosophila S3 Cells;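 on cell number change: cells counted by Cell Tracker Red CMTPX staining in the red channel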
Conditions: BODIPY lipid droplet fluorescence, 18-24 h; for cell number change: measured here: cell count max response, cells fed with added oleic acid
Method in brief: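 Drosophila S3 cells loaded with oleic acid (400 uM, as added) and compounds at several concentrations; lipid droplets imaged by 488-nm laser-scanning cytometry, 500–530 nm intensity and object ratio to cell channel. Percent activity normalized to 20 uM Triacsin C.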

[1] = measured here: cell number channel AC50, cells fed with added oleic acid
[2] = measured here: lipid fluorescence (Fed channel) AC50, cells fed with added oleic acid

SMILES	cell number change	AC50 [1]	AC50 [2]
COc1ccccc1/C=C1/SC(=S)N(CCC(=O)Nc2cccnc2)C1=O	34.6%	0.146 µM [rising, full curve, poor fit]	–
CCc1ccc(NC(=O)COC(=O)C2(c3ccc(Cl)cc3)CCCC2)cc1	-25.8%	–	6.51 µM [falling, partial curve]
COc1ccc(/C(N)=N/OC(=O)Cc2ccc(C)cc2)cc1	24.7%	–	0.092 µM [falling, single point]
Cc1noc2nc(-c3cccs3)cc(-c3nnc4n3CCCCC4)c12	0.692%	–	6.51 µM [falling, single point]
COc1ccc(CNC(=O)CN(C)Cc2ccccc2F)cc1OC	–	0.13 µM [rising, full curve, poor fit]	–
CC(=O)N(C(C)=O)c1c(N2CCOCC2)c2ccccc2oc1=O	-13%	3.66 µM [falling, single point]	–
S=C(NC1CCCCC1)NN1CCOCC1	-13.9%	0.082 µM [rising, full curve, poor fit]	–
COC(=O)CN1C(=O)[C@H]2[C@@H](C3CC3)N3C(=O)CN(Cc4ccccn4)C(=O)[C@@]3(Cc3ccccc3)[C@H]2C1=O	-9.88%	–	–
CC(=O)Nc1ccc(S(=O)(=O)NCCC(=O)OCc2ccccc2F)cc1	-7.39%	–	29.1 µM [falling, single point]
COc1ccccc1CN(C)C(=O)c1ccc(S(=O)(=O)NCc2ccco2)cc1	11.6%	–	0.326 µM [rising, full curve]
O=C(CSc1ncnc2c1cnn2CCc1ccccc1)Nc1cccc(C(F)(F)F)c1	17.6%	–	3.26 µM [rising, partial curve]
CCOC(=O)C1=C(C)N2C(=C(C#N)[C@@H]1c1ccc(C(=O)OC)cc1)SC[C@@]2(O)C(C)(C)C	7.18%	–	0.164 µM [rising, full curve, poor fit]
Cc1ccc2c(c1)NCC(C(=O)NC1CCCCC1)O2 (centres undefined)	2.08%	3.66 µM [rising, single point]	–
COc1ccc(-c2nnc3ccc(SCC(=O)N4CCCCC4)nn23)cc1OC	–	–	6.51 µM [rising, single point]
O=C(CCS(=O)(=O)c1ccc(Cl)cc1)NCCC1=CCCCC1	19.9%	–	0.631 µM [rising, full curve, poor fit]
CCN(CC(=O)NC)S(=O)(=O)c1ccc(Br)cc1	-24.4%	0.00461 µM [falling, full curve, poor fit]	0.651 µM [falling, full curve, poor fit]
CC(C)(C)OC(=O)N[C@@H](Cc1ccccc1)c1nnc(SCC(=O)c2ccc(Cl)cc2)o1	14.3%	–	–
C/C(CCN1CCc2nc(-c3ccccc3)c(-c3ccccc3)cc2C1)=N\OC[C@@H](C)[C@H](OCc1ccccc1)C(C)C	-9.25%	–	18.4 µM [rising, partial curve]
COc1ccc(NC(=S)N(CCC(C)C)C2CCN(C(C)=O)CC2)cc1	-15.6%	–	0.092 µM [falling, full curve, poor fit]
CC(=O)c1ccc(C(=O)NC2CCCN(Cc3ccccc3F)C2)cc1 (centres undefined)	10.3%	–	–
Cc1ccccc1OCCC(=O)OCC(=O)Nc1c(F)cccc1F	-15.5%	–	–

SMILES	cell number change	AC50 [1]	AC50 [2]
COc1cc(CN2CCCC(C(=O)Nc3cccc(-n4cccn4)c3)C2)ccc1F (centres undefined)	-6.45%	–	10.3 µM [falling, partial curve, poor fit]
COc1cccc(C(C)N(C)Cc2nc(COc3ccccc3)no2)c1 (centres undefined)	30.5%	4.11 µM [rising, full curve]	–
N#Cc1ccc(-c2cn(-c3ccccc3)c3[n+]2CCCS3)cc1	-25.3%	0.58 µM [falling, full curve, poor fit]	20.6 µM [falling, single point]
Cc1oc2cc3oc(=O)c(CC(=O)N[C@@H](C)C(=O)NC(Cc4ccc(Cl)cc4)C(=O)O)c(C)c3cc2c1C (some centres undefined)	-24.3%	–	0.184 µM [falling, full curve, poor fit]
COc1cc(CNC(=O)c2cccc(COc3ccc(Cl)cc3)c2)cc(OC)c1	-8.55%	–	–
CC(=O)Nc1c([N+](=O)[O-])cc2[nH]c(=O)[nH]c2c1[N+](=O)[O-]	-5.91%	–	–
CN(CCOc1ccc(Cl)cc1)CC(O)c1ccccc1 (centres undefined)	–	–	6.51 µM [falling, single point]
Cc1cccc(C(=O)Nc2cccc(C(=O)NC3CCCC3)c2)c1	–	–	6.51 µM [falling, single point]
O=C(NC1CC1)C1=C[C@@H](c2c[nH]c3ccccc23)C[C@@H](OCCCCO)O1	-7.76%	–	32.6 µM [falling, partial curve]
Cn1c(SCC(=O)NNC(=S)Nc2ccccc2)nnc1-c1ccncc1	-1.2%	–	6.51 µM [falling, single point]
O=C(O)c1ccccc1NSc1ccccc1[N+](=O)[O-]	10.7%	–	6.51 µM [falling, single point]
O=C(c1cccc(F)c1)N1CCN(C(=O)C(c2ccccc2)c2ccccc2)CC1	7.39%	–	2.91 µM [rising, single point]
Cc1cnc(C(=O)OCC(=O)N2c3ccccc3CC2C)cn1 (centres undefined)	29.9%	–	–
O=C(COC(=O)CC12CC3CC(CC(C3)C1)C2)Nc1cccnc1Cl	-7.98%	–	–
CC(C)(C)c1ccc(OCCC(=O)NCCc2ccc(S(N)(=O)=O)cc2)cc1	-0.54%	–	2.06 µM [falling, partial curve]
CCCCOCCCNC(=O)N[C@H](C(=O)O)C(C)CC (some centres undefined)	-50.2%	20.6 µM [falling, partial curve, poor fit]	–
CCc1ccc(OCC(=O)N/N=C(\C)c2ccc(OC(F)F)cc2)cc1	-16.7%	–	6.51 µM [rising, single point]
Cc1nnc(SCC(=O)NNC(=O)c2ccco2)s1	-38.6%	36.6 µM [falling, partial curve, poor fit]	–
Cc1nnsc1C(=O)Nc1ccc(S(=O)(=O)N2CCCCC2C)cc1 (centres undefined)	-1.53%	–	3.26 µM [rising, single point]
O=C(NC1CCCC1)c1cccc(Cl)c1	16.2%	–	0.731 µM [rising, full curve, poor fit]
CCOC(=O)c1cnc(SCC(=O)N2CCC(C(N)=O)CC2)nc1N	3.92%	–	29.1 µM [rising, single point]

SMILES	cell number change	AC50 [1]	AC50 [2]
COc1ccc([N+](=O)[O-])cc1NS(=O)(=O)c1ccc(Cl)c(C(=O)Nc2sc3c(c2C#N)CCCCC3)c1	–	–	0.13 µM [falling, full curve, poor fit]
CC(=O)C[C@@H](O)CC(=O)[C@H]1OC(=O)CC/C=C\Cc2ccccc21	-11.1%	–	0.00461 µM [rising, full curve, poor fit]
COc1ccc(C(=O)Nc2ccc(S(=O)(=O)N3CCOCC3)cc2)cc1OC	-8.33%	–	3.66 µM [rising, partial curve]
Cn1nnc(C(O)CN2CCOCC2)n1 (centres undefined)	-11.2%	–	–
CC1CCN(C(=O)Cn2c3ccccc3c3nc4n(c(=O)c32)CCS4)CC1	–	–	5.17 µM [falling, full curve]
Cc1ccnc(Nc2nc(-c3ccc(Cl)cc3)cs2)c1	5.26%	–	–
Cc1ccc2nc3n(c(=O)c2c1)CCC3	15.5%	–	–
COc1ccc(N2CCN(C(=O)Cn3cnc4c(cnn4-c4ccccc4)c3=O)CC2)cc1	104%	20.6 µM [rising, partial curve, poor fit]	–
O=C(Nc1ccc(F)cc1)Nc1ccc(S(=O)(=O)N2CCCC2)cc1	-36.5%	32.6 µM [falling, single point]	–
O=C(Nn1cnc2ccccc2c1=O)c1ccc([N+](=O)[O-])cc1Cl	–	4.61 µM [rising, single point]	5.17 µM [rising, single point]
CC(C)(C)OC(=O)CNC(=O)c1[nH]cnc1C(=O)NCCCCCN	-1.97%	–	4.11 µM [rising, full curve, poor fit]
Cc1c(Cl)cccc1NS(=O)(=O)c1ccc2c(c1)C1C=CCC1C(c1ccc(C(=O)O)cc1)N2 (centres undefined)	-20%	0.291 µM [falling, full curve, poor fit]	11.6 µM [falling, partial curve]
CCOC(=O)C1=C(C)N=c2s/c(=C/c3cccc(OCC(=O)O)c3)c(=O)n2C1c1ccc(F)cc1 (centres undefined)	-5.41%	–	6.51 µM [falling, single point]
COc1ccc([C@H]2[C@H](C(=O)OC(C)(C)C)N3N=Cc4ccccc4C3C23C(=O)c2ccccc2C3=O)cc1OC (some centres undefined)	-15.9%	0.411 µM [rising, single point]	29.1 µM [falling, single point]
Cn1ccnc1SCC(=O)Nc1cccc([N+](=O)[O-])c1	–	–	2.31 µM [falling, single point]
COc1ccc(C/C(N)=N/OC(=O)CCc2ccccc2)cc1	-29.5%	–	–
CCOC(=O)N(NC(=O)C(O)(C(C)C)C(C)C)c1ccccc1	-59.3%	29.1 µM [falling, partial curve, poor fit]	20.6 µM [falling, partial curve, poor fit]
Cc1ccc(NC(=O)c2sccc2C)cc1S(=O)(=O)N(C)C	19.1%	–	2.59 µM [rising, partial curve, poor fit]
Cc1cc(C(=O)N[C@@H](c2ccccc2)[C@]2(C)C[C@H]2[C@@H](C)C(=O)Nc2ccc3ccccc3c2)no1	-48.4%	11.6 µM [falling, partial curve]	4.61 µM [falling, partial curve]
